{"source": "paper PMC7578860", "binders": {"B1": {"name": "KH‐type splicing regulatory protein (KSRP), endogenous in mouse macrophages (protein, UniProt Q3U0V1 1-748)", "chain": "MSDYNTGGPPPGPPPPAGGGGGAAGAGGGPPPGPPGAGDRGGGGPGGGGPGGGGASGGPSQPPGGGGPGIRKDAFADAVQRARQIAAKIGGDAATTVNNNTPDFGFGGQKRQLEDGDQPDSKKLASQGDSIGSQLGPIHPPPRTSMTEEYRVPDGMVGLIIGRGGEQINKIQQDSGCKVQISPDSGGLPERSVSLTGAPESVQKAKMMLDDIVSRGRGGPPGQFHDNANGGQNGTVQEIMIPAGKAGLVIGKGGETIKQLQERAGVKMILIQDGSQNTNVDKPLRIIGDPYKVQQACEMVMDILRERDQGGFGDRNEYGSRVGGGIDVPVPRHSVGVVIGRSGEMIKKIQNDAGVRIQFKQDDGTGPEKIAHIMGPPDRCEHAARIINDLLQSLRSGPPGPPGAPGMPPGGRGRGRGQGNWGPPGGEMTFSIPTHKCGLVIGRGGENVKAINQQTGAFVEISRQLPPNGDPNFKLFVIRGSPQQIDHAKQLIEEKIEGPLCPVGPGPGGPGPAGPMGPFNPGPFNQGPPGAPPHAGGPPPHQYPPQGWGNTYPQWQPPAPHDPNKAAAAATDPNAAWAAYYSHYYQQPPGPVPGPAPAPAAPPAQGEPPQPPPTGQSDYTKAWEEYYKKIGQQPQQPGAPPQQDYTKAWEEYYKKQAQVATGGGPGAPPGSQPDYSAAWAEYYRQQAAYYGQTPGPGGPQPPPTQQGQQQASGNCHPPPPPFSFQPPATVHPALVGSAGNPFPCGVCP"}}, "target": "T1, F‐box/WD Repeat‐Containing Protein 2 (FBXW2), endogenous in mouse macrophages (mouse (endogenous in peritoneal macrophages and BMDMs)) (UniProt Q60584)", "T1 sequence": "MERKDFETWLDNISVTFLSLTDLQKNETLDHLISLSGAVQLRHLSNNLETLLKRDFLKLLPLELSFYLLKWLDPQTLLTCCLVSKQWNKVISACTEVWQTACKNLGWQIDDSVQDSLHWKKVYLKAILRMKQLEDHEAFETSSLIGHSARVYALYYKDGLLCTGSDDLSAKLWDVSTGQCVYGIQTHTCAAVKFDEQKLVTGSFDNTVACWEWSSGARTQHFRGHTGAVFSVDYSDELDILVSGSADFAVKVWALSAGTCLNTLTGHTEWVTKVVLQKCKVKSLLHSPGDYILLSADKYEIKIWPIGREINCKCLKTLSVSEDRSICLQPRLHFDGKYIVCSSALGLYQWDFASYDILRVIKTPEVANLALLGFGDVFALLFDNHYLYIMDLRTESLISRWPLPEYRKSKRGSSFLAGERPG", "assay": "affinity purification with mass spectrometry; co-IP of FBXW2 (against IgG) from cellular extracts of peritoneal macrophages of HFD-treated mice; silver-stained additional bands subjected to LC-MS/MS", "note": "These are yes or no findings as the source states them, for the method shown. Binding seen in cells or lysates may run through a third protein. A yes stands for co-enrichment or nearness to the bait. Other partners may have been found.", "data": [{"binder": "B1", "values": [{"measurement": "binding", "result": "binds"}]}]}
